Some of the results follow. Shown are side measurements of this screen, not its main read-out; they come without a call. The list favours compounds with an active or inconclusive main result. Potencies come from curve fits of mixed quality, noted in brackets.
Assay: qHTS Assay to Find Inhibitors of Chronic Active B-Cell Receptor Signaling
Conditions: ABC-DLBCL IkBa-CBG/CBR reporter, luminescence ratio (green luciferase fused to IkBa over red control in TMD8 lymphoma cells), 4 h
Method in brief: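 TMD8 ABC-DLBCL cells carrying doxycycline-inducible green luciferase fused to IkappaBalpha plus unfused red luciferase were exposed to compounds (up to 46 uM) for 4 hrs at 37C. Activity came from the overlap-corrected green/red luminescence ratio.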

[1] = measured here: CBR red luminescence, cell number
[2] = measured here: IkBa-CBG green luminescence

Structure (SMILES)	AC50 [1]	AC50 [2]
CCc1cccc(C)c1NC(=O)CCCC(=O)O	2.06 µM [rising, full curve, poor fit]	–
CN(Cc1ccccc1F)C(=O)CNC(=O)Cc1cccc2ccccc12	12.6 µM [falling, partial curve, poor fit]	–
CC(C)Nc1nnc(SC(C)C(=O)N(C)C2CCCCC2)s1 (centres undefined)	1.16 µM [rising, full curve, poor fit]	–
O=C(Nc1ccc(N2CCOCC2)cc1)c1c(F)cccc1Cl	3.16 µM [falling, full curve]	–
Cc1ccccc1CS(=O)(=O)c1snnc1C	35.5 µM [rising, single point]	–
CCC(C)NCCOc1cc(C)cc(C)c1C (centres undefined)	11.2 µM [falling, partial curve, poor fit]	–
Cc1nnc(SCC(=O)Nc2cccc(C(F)(F)F)c2)n1Cc1ccco1	3.98 µM [falling, partial curve, poor fit]	–
Cc1onc(-c2ccccc2)c1C(=O)Nc1ccc(S(=O)(=O)Nc2nccs2)cc1	2.82 µM [falling, partial curve, poor fit]	–
CN(C)c1nc(Cl)cc(N2CCOCC2)n1	16.4 µM [rising, single point]	–
O=C(c1ccccc1)N1N=C(c2ccccc2)CC1(O)C(F)(F)F (centres undefined)	2.82 µM [falling, full curve, poor fit]	–
O=C(OCc1ccccc1F)c1cnc(Cl)c(Cl)c1	3.55 µM [rising, full curve]	–
Cc1ccc(Oc2ccccc2)c(NC=O)c1	12.6 µM [rising, partial curve, poor fit]	–
COc1ccc(C2(c3ccc(OC)cc3)NC(=O)N(CC(=O)Nc3ccc(C(N)=O)cc3)C2=O)cc1	6.31 µM [falling, single point]	–
C=CCN(c1ccccc1)S(=O)(=O)c1cccc(C(=O)NCC(c2ccc(F)cc2)N2CCOCC2)c1 (centres undefined)	16.4 µM [falling, partial curve]	–
O=C(CSc1nnc(CSc2nc3ccccc3s2)o1)NC1CCCCC1	3.16 µM [rising, partial curve]	–
CCOC(=O)c1cc(-c2ccc(OC)cc2)n(CCC(=O)Nc2ccc(OC)cc2OC)c1C	35.5 µM [rising, single point]	–
CCOC(=O)c1nn(-c2ccc([N+](=O)[O-])cc2)cc1O	4.47 µM [rising, single point]	–
O=C1N[C@H](Cc2ccccc2)COC(=O)[C@@H](Cc2ccc(F)cc2)C/C=C\C[C@H]1CC(=O)N(CCO)Cc1ccccc1	14.6 µM [falling, single point]	–
COc1ccc2nc(NC(=O)c3ccccc3C(=O)O)sc2c1	3.98 µM [falling, partial curve]	–
O=C1CC(c2ccccc2)CC(O)=C1C=NC1CCCC1 (centres undefined)	20 µM [falling, partial curve, poor fit]	–
O=C(Nc1nnc2n1CCS2)c1ccccc1	1.26 µM [rising, full curve, poor fit]	–

Structure (SMILES)	AC50 [1]	AC50 [2]
O=C1c2cccc3cccc(c23)C(=O)N1OS(=O)(=O)c1ccccc1	11.6 µM [rising, partial curve, poor fit]	–
Cc1ccc(C2CC2/C(=N/O)c2ccc(F)cc2)cc1 (centres undefined)	1.41 µM [rising, full curve, poor fit]	–
COC(=O)c1ccc2c(=O)n(CCCCCC(=O)NC(C)C)c(=O)[nH]c2c1	–	1.26 µM [rising, full curve, poor fit]
Nc1ccnc(Oc2ccc(F)cc2)c1	2.31 µM [rising, partial curve, poor fit]	–
COc1cc(CNCCc2ccccc2)cc(Cl)c1OCc1ccccc1	22.4 µM [falling, single point]	28.2 µM [rising, single point]
COc1ccnc(-n2cccc2C#N)c1C#N	4.47 µM [rising, partial curve, poor fit]	–
O=C(O)C1CCN(C(=O)CCN2C(=O)S/C(=C\c3ccccc3)C2=O)CC1	4.47 µM [falling, single point]	–
Cc1cc2ccccc2nc1SCC(=O)Nc1nc(-c2ccccc2)cs1	0.891 µM [falling, full curve]	–
Cc1cccc(C(=O)Nc2sc(C)c(-c3ccccc3)c2C#N)c1	1 µM [rising, full curve]	–
C=CCN1C(=O)CSc2ccc(C(=O)NCc3cccs3)cc21	14.1 µM [falling, single point]	–
Cc1ccc(-n2c(SCc3cn4ccsc4n3)nc3ccccc3c2=O)cc1	0.58 µM [rising, full curve, poor fit]	–
Cc1ccc(/C=N/NC(=O)c2ccoc2C)s1	16.4 µM [falling, partial curve]	–
O=C(Nc1cccnc1)c1ccc(Br)s1	0.731 µM [rising, partial curve, poor fit]	–
O=CC1=C(c2ccccc2)Oc2ccccc2O1	35.5 µM [falling, single point]	–
Fc1ccc(N=c2ssnc2Cl)c(F)c1	15.8 µM [falling, single point]	–
CC(Sc1nnc(NCc2ccccc2)s1)C(=O)Nc1ccc2c(c1)C(=O)c1ccccc1C2=O (centres undefined)	18.4 µM [falling, single point]	–
Cc1c(C(=O)Nc2nnc(SCc3ccccc3Cl)s2)cccc1[N+](=O)[O-]	6.51 µM [rising, full curve, poor fit]	–
O=C(NCc1ccc2c(c1)OCO2)c1cc(-c2ccccc2Cl)on1	10 µM [falling, partial curve, poor fit]	–
Cc1cc(C)nc(N(C#N)Cc2cccc3ccccc23)n1	29.1 µM [falling, single point]	–
N/C(=N\OC(=O)c1ccc(Cl)c(Cl)c1)c1cccnc1	0.058 µM [rising, full curve, poor fit]	–
COc1ccccc1N1CCN(c2nc3ccccn3c(=O)c2C=O)CC1	29.1 µM [rising, single point]	18.4 µM [falling, partial curve, poor fit]

Of the compounds above, two contain a CF3 group.
Structure (SMILES)	AC50 [1]	AC50 [2]
Cc1nnc(SCC(=O)Nc2cccc(C(F)(F)F)c2)n1Cc1ccco1	3.98 µM [falling, partial curve, poor fit]	–
O=C(c1ccccc1)N1N=C(c2ccccc2)CC1(O)C(F)(F)F (centres undefined)	2.82 µM [falling, full curve, poor fit]	–

— PubChem BioAssay AID493014 (National Center for Advancing Translational Sciences (NCATS), 2011)
